# From US20070054916A1, “Aryl nitrogen-containing bicyclic compounds and methods of use” (Amgen Inc., priority 2004, published 2007)
# Protein sequences, listed by entry. Tags and fused reporters are not part of them. Residues count along the entry.
# UniProt Q02763, 23-1124: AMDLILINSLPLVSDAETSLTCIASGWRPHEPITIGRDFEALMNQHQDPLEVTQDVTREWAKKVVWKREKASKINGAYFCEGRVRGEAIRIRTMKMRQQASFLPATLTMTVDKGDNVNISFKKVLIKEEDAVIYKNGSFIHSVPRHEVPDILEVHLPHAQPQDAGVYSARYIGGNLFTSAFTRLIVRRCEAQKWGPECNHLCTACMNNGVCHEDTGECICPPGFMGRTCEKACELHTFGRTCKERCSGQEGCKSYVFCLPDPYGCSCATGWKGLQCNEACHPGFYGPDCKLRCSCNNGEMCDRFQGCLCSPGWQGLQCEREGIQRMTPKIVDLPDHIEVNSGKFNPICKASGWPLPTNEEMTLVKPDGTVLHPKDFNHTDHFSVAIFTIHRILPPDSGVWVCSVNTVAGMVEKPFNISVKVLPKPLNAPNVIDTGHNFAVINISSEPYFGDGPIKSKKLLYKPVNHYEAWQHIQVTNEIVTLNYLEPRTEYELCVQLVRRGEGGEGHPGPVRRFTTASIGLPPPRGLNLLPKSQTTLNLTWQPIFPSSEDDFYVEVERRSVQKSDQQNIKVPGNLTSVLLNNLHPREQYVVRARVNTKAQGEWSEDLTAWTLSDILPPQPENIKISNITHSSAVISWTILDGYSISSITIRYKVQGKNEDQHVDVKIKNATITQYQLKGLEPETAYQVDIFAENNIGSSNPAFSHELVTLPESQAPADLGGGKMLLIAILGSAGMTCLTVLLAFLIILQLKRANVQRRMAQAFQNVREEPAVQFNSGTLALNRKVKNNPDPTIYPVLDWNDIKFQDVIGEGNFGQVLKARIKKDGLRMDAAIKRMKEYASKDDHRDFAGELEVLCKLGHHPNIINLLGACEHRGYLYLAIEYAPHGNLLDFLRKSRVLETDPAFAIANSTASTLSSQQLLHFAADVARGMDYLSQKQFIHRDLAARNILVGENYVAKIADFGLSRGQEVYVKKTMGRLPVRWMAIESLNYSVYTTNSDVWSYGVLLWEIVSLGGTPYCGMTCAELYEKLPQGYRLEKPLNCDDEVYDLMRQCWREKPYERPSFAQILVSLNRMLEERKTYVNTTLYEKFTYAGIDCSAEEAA
# Some of these results come from one statement about several compounds together.
# Target: Tie-2 kinase enzyme (Homo sapiens, UniProt Q02763)
# Assay: Tie-2 Homogenous Time Resolved Flourescent (HTRF) kinase assay
# Format: biochemical
# Settings: read-out: IC50's for the inhibition of Tie-2 as measured by the HTRF assay
row,Compound,IC50 [µM]
1,"COc1c(Br)cc(-c2ccc3nc(N)ncc3c2)cc1C(=O)Nc1cc(C(F)(F)F)ccc1N(C)CCCN(C)C [Example 103, 5-(2-amino-6-quinazolinyl)-3-bromo-N-(2-((3-(dimethylamino)propyl)(methyl)amino)-5-(trifluoromethyl)phenyl)-2-(methyloxy)benzamide]",≤ 1
2,"COc1c(C(=O)Nc2cc(C(F)(F)F)ccc2N(C)CCCN(C)C)cc(Br)cc1-c1ccc2nc(N)ncc2c1 [Example 104, 3-(2-amino-6-quinazolinyl)-5-bromo-N-(2-((3-(dimethylamino)propyl)(methyl)amino)-5-(trifluoromethyl)phenyl)-2-(methyloxy)benzamide]",≤ 1
3,"CN1CCN(Cc2cc(NC(=O)c3cc(-c4ccc5nc(N)ncc5c4)ccc3F)cc(C(F)(F)F)c2)CC1 [Example 105, 5-(2-amino-6-quinazolinyl)-2-fluoro-N-(3-((4-methyl-1-piperazinyl)methyl)-5-(trifluoromethyl)phenyl)benzamide]",≤ 1
4,"COc1cc(-c2ccc3nc(N)ncc3c2)cc(C(=O)Nc2cc(CN3CCN(C)CC3)cc(C(F)(F)F)c2)c1OC [Example 106, 5-(2-amino-6-quinazolinyl)-2,3-bis(methyloxy)-N-(3-((4-methyl-1-piperazinyl)methyl)-5-(trifluoromethyl)phenyl)benzamide]",≤ 1
5,"COc1ccc(-c2ccc3nc(N)ncc3c2)cc1C(=O)Nc1cc(CN2CCN(C)CC2)cc(C(F)(F)F)c1 [Example 107, 5-(2-amino-6-quinazolinyl)-2-(methyloxy)-N-(3-((4-methyl-1-piperazinyl)methyl)-5-(trifluoromethyl)phenyl)benzamide]",≤ 1
6,"COc1ccc(-c2ccc3nc(N)ncc3c2)cc1C(=O)Nc1cccc(OC(F)(F)F)c1 [Example 108, 5-(2-amino-6-quinazolinyl)-2-(methyloxy)-N-(3-((trifluoromethyl)oxy)phenyl)benzamide]",≤ 1
7,"COc1c(C(=O)Nc2cccc(C(F)(F)F)c2)cc(-c2ccc3nc(N)ncc3c2)c(OC)c1OC [Example 109, 5-(2-amino-6-quinazolinyl)-2,3,4-tris(methyloxy)-(trifluoromethyl)-N-(3-phenyl)benzamide]",≤ 1
8,"COc1c(C(=O)Nc2cc(C(F)(F)F)ccc2N(C)CCCN(C)C)cc(-c2ccc3nc(N)ncc3c2)c(OC)c1OC [Example 110, 5-(2-amino-6-quinazolinyl)-N-(2-((3-(dimethylamino)propyl)methyl)amino-5-(trifluoromethyl)phenyl)-2,3,4-tris(methyloxy)benzamide]",≤ 1
9,COc1ccc(-c2ccc3nc(N)ncc3c2)c(OC)c1C(=O)Nc1cccc(C(F)(F)F)c1 [Example 111],≤ 1
10,"COc1ccc(-c2ccc3nc(N)ncc3c2)c(OC)c1C(=O)Nc1cc(C(F)(F)F)ccc1N(C)CCCN(C)C [Example 112, 3-(2-amino-6-quinazolinyl)-N-(2-((3-(dimethylamino)propyl)(methyl)amino)-5-(trifluoromethyl)phenyl)-2,6-bis(methyloxy)benzamide]",≤ 1
11,"Nc1ncc2cc(-c3ccc(F)c(C(=O)Nc4cccc(C(F)(F)F)c4)c3)ccc2n1 [Example 113, 5-(2-amino-6-quinazolinyl)-2-fluoro-N-(3-(trifluoromethyl)phenyl)benzamide]",≤ 1
12,"Cc1ccc(C(=O)Nc2cc(C(F)(F)F)ccc2N(C)CCCN(C)C)cc1-c1ccc2nc(N)ncc2c1 [Example 114, 3-(2-amino-6-quinazolinyl)-N-(2-((3-(dimethylamino)propyl)(methyl)amino)-5-(trifluoromethyl)phenyl)-4-methylbenzamide]",≤ 1
13,"COc1ccc(C(F)(F)F)c(C)c1NC(=O)c1ccc(C)c(-c2ccc3nc(N)ncc3c2)c1 [Example 115, 3-(2-amino-6-quinazolinyl)-4-methyl-N-(2-methyl-6-(methyloxy)-3-(trifluoromethyl)phenyl)benzamide]",≤ 1
14,"Cc1cc(NC(=O)c2ccc(C)c(-c3ccc4nc(N)ncc4c3)c2)c(N(C)CCCN(C)C)cc1C [Example 116, 3-(2-amino-6-quinazolinyl)-N-(2-((3-(dimethylamino)propyl)(methyl)amino)-4,5-dimethylphenyl)-4-methylbenzamide]",≤ 1
15,"Cc1ccc(C(=O)Nc2c(N(C)CCCN(C)C)ccc(C(F)(F)F)c2C)cc1-c1ccc2nc(N)ncc2c1 [Example 117, 3-(2-amino-6-quinazolinyl)-N-(6-((3-(dimethylamino)propyl)(methyl)amino)-2-methyl-3-(trifluoromethyl)phenyl)-4-methylbenzamide]",≤ 1
16,"Cc1ccc(C(=O)Nc2ccc(C(F)(F)F)cc2N(C)CCCN(C)C)cc1-c1ccc2nc(N)ncc2c1 [Example 118, 3-(2-amino-6-quinazolinyl)-N-(2-((3-(dimethylamino)propyl)(methyl)amino)-4-(trifluoromethyl)phenyl)-4-methylbenzamide]",≤ 1
17,"COc1ccc(NC(=O)c2ccc(C)c(-c3ccc4nc(N)ncc4c3)c2)cc1C(F)(F)F [Example 119, 3-(2-amino-6-quinazolinyl)-4-methyl-N-(4-(methyloxy)-3-(trifluoromethyl)phenyl)benzamide]",≤ 1
18,"CCN(CC)CCCOc1ccc(NC(=O)c2ccc(C)c(-c3ccc4nc(N)ncc4c3)c2)cc1C(F)(F)F [Example 122, 3-(2-amino-6-quinazolinyl)-N-(4-((3-(diethylamino)propyl)oxy)-3-(trifluoromethyl)phenyl)-4-methylbenzamide]",≤ 1

row,Compound,IC50 [µM]
1,"Cc1ccc(C(=O)Nc2ccc(OC3CCN(C)CC3)c(C(F)(F)F)c2)cc1-c1ccc2nc(N)ncc2c1 [Example 123, 3-(2-amino-6-quinazolinyl)-4-methyl-N-(4-((1-methyl-4-piperidinyl)oxy)-3-(trifluoromethyl)phenyl)benzamide]",≤ 1
2,"Cc1ccc(C(=O)Nc2ccc(F)c(C(F)(F)F)c2)cc1-c1ccc2nc(N)ncc2c1 [Example 124, 3-(2-amino-6-quinazolinyl)-N-(4-fluoro-3-(trifluoromethyl)phenyl)-4-methylbenzamide]",≤ 1
3,"Cc1ccc(C(=O)Nc2ccc(C#N)c(C(F)(F)F)c2)cc1-c1ccc2nc(N)ncc2c1 [Example 125, 3-(2-amino-6-quinazolinyl)-N-(4-cyano-3-(trifluoromethyl)phenyl)-4-methylbenzamide]",≤ 1
4,"Cc1cc(F)c(C(=O)Nc2cccc(C(F)(F)F)c2)cc1-c1ccc2nc(N)ncc2c1 [Example 126, 5-(2-amino-6-quinazolinyl)-2-fluoro-4-methyl-N-(3-(trifluoromethyl)phenyl)benzamide]",≤ 1
5,"Cc1ccc(C(=O)Nc2ccc(C(F)(F)F)cc2)cc1-c1ccc2nc(N)ncc2c1 [Example 127, 3-(2-amino-6-quinazolinyl)-4-methyl-N-(4-(trifluoromethyl)phenyl)benzamide]",≤ 1
6,"Cc1ccc(C(=O)Nc2ccc(C(C)(C)C)cc2)cc1-c1ccc2nc(N)ncc2c1 [Example 128, 3-(2-amino-6-quinazolinyl)-N-(4-(1,1-dimethylethyl)phenyl)-4-methylbenzamide]",≤ 1
7,"Cc1ccc(C(=O)Nc2ccc3c(c2)NC(=O)CC3(C)C)cc1-c1ccc2nc(N)ncc2c1 [Example 129, 3-(2-amino-6-quinazolinyl)-N-(4,4-dimethyl-2-oxo-1,2,3,4-tetrahydro-7-quinolinyl)-4-methylbenzamide]",≤ 1
8,"Cc1ccc(C(=O)Nc2ccc3c(c2)NCCC3(C)C)cc1-c1ccc2nc(N)ncc2c1 [Example 130, 3-(2-amino-6-quinazolinyl)-N-(4,4-dimethyl-1,2,3,4-tetrahydro-7-tetrahydro-7-quinolinyl)-4-methylbenzamide]",≤ 1
9,"Cc1ccc(C(=O)Nc2ccc3c(c2)CNCC3(C)C)cc1-c1ccc2nc(N)ncc2c1 [Example 131, 3-(2-amino-6-quinazolinyl)-N-(4,4-dimethyl-1,2,3,4-tetrahydro-7-isoquinolinyl)-4-methylbenzamide]",≤ 1
10,"Cc1c(C(=O)Nc2cccc(C(F)(F)F)c2)cccc1-c1ccc2nc(N)ncc2c1 [Example 133, 3-(2-amino-6-quinazolinyl)-2-methyl-N-(3-(trifluoromethyl)phenyl)benzamide]",≤ 1
11,"Nc1ncc2cc(-c3cc(C(=O)Nc4cccc(C(F)(F)F)c4F)ccc3F)ccc2n1 [Example 136, 3-(2-amino-6-quinazolinyl)-4-fluoro-N-(2-fluoro-3-(trifluoromethyl)phenyl)benzamide]",≤ 1
12,"Nc1ncc2cc(-c3cc(C(=O)Nc4cccc(C(F)(F)F)c4)ccc3F)ccc2n1 [Example 137, 3-(2-amino-6-quinazolinyl)-4-fluoro-N-(3 (trifluoromethyl)phenyl)benzamide]",≤ 1
13,"COc1ccc(C(C)(C)C)cc1NC(=O)c1ccc(F)c(-c2ccc3nc(N)ncc3c2)c1 [Example 138, 3-(2-amino-6-quinazolinyl)-N-(5-(1,1-dimethylethyl)-2-(methyloxy)phenyl)-4-fluorobenzamide]",≤ 1
14,"COc1ccc(C(C)(C)C)cc1NC(=O)c1ccc(Cl)c(-c2ccc3nc(N)ncc3c2)c1 [Example 139, 3-(2-amino-6-quinazolinyl)-4-chloro-N-(5-(1,1-dimethylethyl)-2-(methyloxy)phenyl)benzamide]",≤ 1
15,"Nc1ncc2cc(-c3cc(C(=O)Nc4cccc(C(F)(F)F)c4F)ccc3Cl)ccc2n1 [Example 140, 3-(2-amino-6-quinazolinyl)-4-chloro-N-(2-fluoro-3-(trifluoromethyl)phenyl)benzamide]",≤ 1
16,"Cc1c(NC(=O)c2ccc(Cl)c(-c3ccc4nc(N)ncc4c3)c2)cccc1C(F)(F)F [Example 141, 3-(2-amino-6-quinazolinyl)-4-chloro-N-(2-methyl-3-(trifluoromethyl)phenyl)benzamide]",≤ 1
17,"Nc1ncc2cc(-c3cc(C(=O)Nc4cccc(OC(F)(F)F)c4)ccc3Cl)ccc2n1 [Example 142, 3-(2-amino-6-quinazolinyl)-4-chloro-N-(3-((trifluoromethyl)oxy)phenyl)benzamide]",≤ 1
18,"COc1ccc(Cl)cc1NC(=O)c1ccc(C)c(-c2ccc3nc(N)ncc3c2)c1 [Example 143, 3-(2-amino-6-quinazolinyl)-N-(5-chloro-2-(methyloxy)phenyl)-4-methylbenzamide]",≤ 1
